According to article PMC9973269:

Molecular target: T1, GST-ScaA (passenger domain of ScaA, ScaA_(30-1000), Boryong genotype) (Orientia tsutsugamushi (Boryong genotype))
T1 sequence: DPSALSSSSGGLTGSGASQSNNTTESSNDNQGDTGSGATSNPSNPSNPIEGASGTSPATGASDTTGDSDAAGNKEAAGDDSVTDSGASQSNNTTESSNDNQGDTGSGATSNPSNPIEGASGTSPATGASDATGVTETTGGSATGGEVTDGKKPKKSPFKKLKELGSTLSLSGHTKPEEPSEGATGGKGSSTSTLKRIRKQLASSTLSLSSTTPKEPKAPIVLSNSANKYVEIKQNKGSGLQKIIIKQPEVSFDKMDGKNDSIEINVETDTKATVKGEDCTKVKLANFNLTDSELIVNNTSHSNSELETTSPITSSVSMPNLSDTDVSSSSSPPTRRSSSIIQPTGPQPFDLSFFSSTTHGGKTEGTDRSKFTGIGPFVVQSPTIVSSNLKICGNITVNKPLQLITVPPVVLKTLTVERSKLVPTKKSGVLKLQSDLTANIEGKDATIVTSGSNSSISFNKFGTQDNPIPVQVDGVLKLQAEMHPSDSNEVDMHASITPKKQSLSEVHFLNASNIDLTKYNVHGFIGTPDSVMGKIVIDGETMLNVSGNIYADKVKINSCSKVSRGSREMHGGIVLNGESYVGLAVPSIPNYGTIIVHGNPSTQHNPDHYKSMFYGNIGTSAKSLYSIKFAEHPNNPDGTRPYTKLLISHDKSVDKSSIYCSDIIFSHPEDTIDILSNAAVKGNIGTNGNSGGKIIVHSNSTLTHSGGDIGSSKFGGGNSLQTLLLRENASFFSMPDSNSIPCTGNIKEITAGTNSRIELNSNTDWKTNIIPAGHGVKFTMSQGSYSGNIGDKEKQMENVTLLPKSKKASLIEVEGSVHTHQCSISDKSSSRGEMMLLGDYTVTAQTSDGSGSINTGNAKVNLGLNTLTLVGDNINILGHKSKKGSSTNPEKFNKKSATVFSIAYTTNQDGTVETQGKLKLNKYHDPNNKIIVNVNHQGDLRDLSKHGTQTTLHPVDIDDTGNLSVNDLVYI
Assay: pull-down; GST fusion proteins bound to glutathione beads, incubated with lysate (NP-40 buffer) of cells transfected with full-length or truncated vMLL5 at 4°C for 4 h; washed four times with 20 mM HEPES pH 7.4, 100 mM NaCl, 1% NP-40; immunoblot with anti-HA; only the target purified

vMLL5 (alternative splicing variant of mixed-lineage leukemia 5), full length (human)
binding: binds

These are yes or no findings as the source states them, for the method shown. Binding seen in cells or lysates may run through a third protein. Binding calls can cover weak binding; strength is not graded here. Where a sequence is shown, tags or fusion partners need not be part of it.
